Reference: US20120003298A1, “METHODS FOR INDUCING AN IMMUNE RESPONSE” (priority 2010, published 2012)
“Also recorded” adds a separate entry of the source. For at least one compound, name, drawing or mass did not settle the structure. Some of these results come from one statement about several compounds together.

Experiments:
[1] = system: myeloid CD11c+/CD123− DCs; test: FACS, myeloid DC activation in whole blood; assay type: cell-based, human; settings: 24 hours; 0.1 and 0.5 uM
Method: The FACS analysis for donor 1 and donor 2 was made on another day than donor 3. The compound concentrations were as follows:
B cell activation: 2 and 10 uM mDC/pDC: 0.1 and 0.5 uM
The FACS analysis was used to identify whether the test compounds could induce activation of B cells, and two different subsets of dendritic cells, namely the myeloid CD11c+/CD123− DCs and the plasmacytoid CD11c−/CD123+DCs. The following markers were studied to identify the activation status of the different subsets:
The FACS staining was performed according to the manufacturer's instructions. Lysis of red blood cells was performed before FACS staining in order to minimize auto-florescence. To include as many B cells and DCs in the study as possible the FACS analyses were performed on 500,000 cells in total for each staining. A P1 gate was set only to include relevant cells on FSC vs. SSC (see FIGS. 12-15). The results of the individual analysis were present as Mean Fluorescence Intensity (MFI) values, for certain activation marker in a given gate setting, represent the actual cell subset. […]
The analysis of myeloid DCs was based on HLA-DR+/CD11c+/CD123-cells, thus all analyzed cells was included in the HLA-DR+(P3) gate and CD11c+/CD123− (Q4) gate (see gates in FIGS. 13-15).

HLA-DR+/CD20+ B cells = test: FACS, B cell activation in whole blood; assay type: cell-based, human; settings: 24 hours; 2 and 10 uM
OVA specific Ig = test: Adjuvanticity with ovalbumin (OVA), subcutaneous immunization; assay type: in vivo, mouse
[2] = system: plasmacytoid CD11c−/CD123+DCs; test: FACS, plasmacytoid DC activation in whole blood; assay type: cell-based, human; settings: 24 hours; 0.1 and 0.5 uM
human PBMCs = test: IL-6 secretion in human PBMCs, two batches of Compound A and SC12 (Example 4); assay type: cell-based; settings: 5 months storage in DMSO at 4° C.
NFκB-bla Raw 264.7 Cells = test: NFκB activation in NFκB-bla Raw 264.7 cells; assay type: cell-based, mouse; settings: FIG. 2
[3] = Stability on storage by HPLC (solid or chloroform solution; temperature, light)
[4] = Intrabladder application, serum cytokines (Luminex) and histology; assay type: in vivo, mouse
Method: Female C57BU6 mice were anesthetized with ketamine/xylazine. The 50 microliter formulated compounds were intravesically administered for twenty minutes at each treatment. The treatment schedule and doses are in Table 35 and 36, respectively. The levels of cytokines (IL-6, IL-12, and TNF-alpha) were determined by Luminex assay. Paraffin sections were prepared and H & E staining performed.

MB49 cells = test: Mouse bladder cancer model, intravesical treatment (Experiment 24); assay type: in vivo; settings: Experiment 1; in Phosal 50, 50 microliters, 20 minutes; 2 h and 24 h
Method: A set of experiments was conducted with SC12 in various solutions, in a mouse bladder cancer model.
7-9 week old C57BU6 mice were implanted with 1×10^6 MB49 cells after 0.1% poly L lysine treatment on day 0. […] On day 11, mice were sacrificed and organs were harvested.

[5] = In vivo pharmacodynamics, serum cytokines after intravenous injection; parameters: species or system mouse; settings: 200 nmol intravenously
human whole blood = test: Cytokine secretion in human whole blood assay, ELISA; assay type: cell-based; settings: for levels of IL-12p40: all donors
Method: Before drawing the blood, the compounds were added to 96 well round bottom plates in a 10× diluted sample at 20 ul. The compounds were diluted in RPMI media without serum but with antibiotics. Antibiotics were added at a 10× concentration. After drawing the blood, the whole blood sample was gently mixed to obtain a homogeneous sample, and 180 ul was added to each well.
All compounds were setup in concentrations at 0-0.01-0.03-0.1-0.5-2.0-10.0 micromolar as the final concentration. Vehicle control was DMSO control, where we used the highest concentration used for the compounds. After addition of blood, all plates were gently agitated at 37° C. and 5% CO2 until harvest.
For the 6 hours time point, the plate was centrifuged 500×g. Supernatant (SN) was transferred to a tube and centrifuged at 10.000×g for 10 min to get rid of cells and protein aggregates. The clarified supernatant was frozen at −80° C. until analysis.
The SN was removed to another tube and centrifuged at 10.000×g for 10 min. to get rid of aggregates etc. The clarified supernatant was frozen at −80° C. until analysis.
Concentrations of cytokines were determined by ELISA from R&D Systems. The results were analyzed in Graph Pad Prism in order to prepare dose-response
curves, and for determination of EC50 values. FACS analysis was made by using Becton-Dickinson FACSDiva software and subsequently illustrated in Graph Pad Prism.

CCCCCCCC/C=C\CCCCCCCC(=O)OCC(COP(=O)(O)OCCNC(=O)c1ccc(Cn2c(=O)[nH]c3c(N)nc(OCCOC)nc32)cc1)OC(=O)CCCCCCC/C=C\CCCCCCCC (stereo not drawn) [Compound A, 2-(4-((6-amino-2-(2-methoxyethoxy)-8-oxo-7H-purin-9(8H)-yl)methyl)benzamido)ethyl 2,3-bis(oleoyloxy)propyl phosphate]
CD80 expression in mDCs (MFI, words) [1]: noteworthy CD80 expression in all three donors | CD86 expression in mDCs (MFI, words) [1]: further stimulates the expression of CD86 in all three donors | CD40 expression on B cells (MFI, words) (HLA-DR+/CD20+ B cells): induced CD40 expression in donor 1 and donor 2 in all tested concentrations; also recorded: slightly higher levels of the maturation marker CD40 than SC12 | antigen specific IgG2a (OVA specific Ig; OVA 20 μg with 10 or 100 nmoles, days 0 and 7): significantly higher than the immunization with OVA alone | OVA-specific IgG1 (OVA specific Ig; mouse, in vivo): not found to induce high levels of OVA-specific IgG1 | CCR7 expression in pDCs (MFI, words) [2]: largely higher CCR7 expression than SC12 | activity after storage (human PBMCs): have not lost activity | activity in NFkB RAW cells (NFκB-bla Raw 264.7 Cells): more active than the free pharmocophore | Purity (HPLC) ([3]; Retest date: 18 Jun. 2009 (first test 11 Jun. 2009), room temperature, natural light): Purify: 71.5% | HPLC % at RRT = 1 ([3]; Solid, +4° C., t = 2 days): 95.6% | HPLC % at RRT = 1 ([3]; Solid, +4° C., t = 5 days): 94.7% | HPLC % at RRT = 1 ([3]; Solid, +4° C., t = 7 days): 94.9% | HPLC % at RRT = 1 ([3]; Solid, +4° C., t = 20 days): 90.4% | HPLC % at RRT = 1 ([3]; Solid, external T (28-35° C.) and light, t = 6 days, listed as CH730/16/8G): 35.4% | HPLC % at RRT = 1 ([3]; Solid, external T (28-35° C.) and light, t = 6 days, listed as CH730/16/8g): 35.4% | HPLC % at RRT = 1 ([3]; Solid, external T and light, t = 2 days): 37.6% | HPLC % at RRT = 1 ([3]; Solid, external temperature and light, t = 2 days): 94.1% | HPLC % at RRT = 1 ([3]; Solid, external temperature and light, t = 5 days): 92.0% | HPLC % at RRT = 1 ([3]; Solid, external temperature and light, t = 7 days): 92.0% | HPLC % at RRT = 1 ([3]; Solid, external temperature and light, t = 20 days): 43.8% | HPLC % at RRT = 1 ([3]; Solid, room temperature and light, t = 2 days): 94.6% | HPLC % at RRT = 1 ([3]; Solid, room temperature and light, t = 5 days): 91.7% | HPLC % at RRT = 1 ([3]; Solid, room temperature and light, t = 7 days): 91.8% | HPLC % at RRT = 1 ([3]; Solid, room temperature and light, t = 20 days): 68.5% | HPLC % at RRT = 1 ([3]; Solution in CHCl3, +4° C., t = 2 days): 95.3% | HPLC % at RRT = 1 ([3]; Solution in CHCl3, +4° C., t = 5 days): 95.3% | HPLC % at RRT = 1 ([3]; Solution in CHCl3, +4° C., t = 7 days): 95.2% | HPLC % at RRT = 1 ([3]; Solution in CHCl3, +4° C., t = 20 days): 93.9% | HPLC % at RRT = 1 ([3]; Solution in CHCl3, RT and light, t = 0): 81.4% | HPLC % at RRT = 1 ([3]; Solution in CHCl3, RT and light, t = 1 day): 80.9% | HPLC % at RRT = 1 ([3]; Solution in CHCl3, RT and light, t = 5 days): 79.3% | HPLC % at RRT = 1 ([3]; Solution in CHCl3, RT and light, t = 7 days): 80.5% | HPLC % at RRT = 1 ([3]; Solution in CHCl3, RT and light, t = 11 days): 82.0% | HPLC % at RRT = 1 ([3]; Solution in CHCl3, T about 30° C. without light, t = 1 day): 80.7% | HPLC % at RRT = 1 ([3]; Solution in CHCl3, external T and light, t = 1 day): 80.3% | HPLC % at RRT = 1 ([3]; Solution in CHCl3, external temperature and light, t = 2 days): 94.2% | HPLC % at RRT = 1 ([3]; Solution in CHCl3, external temperature and light, t = 5 days): 90.2% | HPLC % at RRT = 1 ([3]; Solution in CHCl3, external temperature and light, t = 7 days): 89.0% | HPLC % at RRT = 1 ([3]; Solution in CHCl3, external temperature and light, t = 20 days): 55.6% | HPLC % at RRT = 1 ([3]; Solution in CHCl3, room temperature and light, t = 0): 95.6% | HPLC % at RRT = 1 ([3]; Solution in CHCl3, room temperature and light, t = 2 days): 95.5% | HPLC % at RRT = 1 ([3]; Solution in CHCl3, room temperature and light, t = 5 days): 95.4% | HPLC % at RRT = 1 ([3]; Solution in CHCl3, room temperature and light, t = 7 days): 95.5% | HPLC % at RRT = 1 ([3]; Solution in CHCl3, room temperature and light, t = 20 days): 94.4% | serum IL-12 ([4]; day 0, 2 hour time point, intravesical about 207 nmoles in 50 μl): elevated levels of IL-12 | bladder histology, cell infiltration ([4]; day 7): immune cell infiltration in the bladder | serum IL-6 and TNF-alpha (MB49 cells): under the detection levels | IL-12 induction sustained up to [5]: ≤ 76 h | TNF-alpha induction sustained up to [5]: up to 48 hours | time course of cytokine induction [5]: lower but sustained cytokine induction than the free ligand | serum proinflammatory cytokine levels ([5]; C57BL/6 mice): induced similar levels of the proinflammatory cytokines IL-6, IL-12 and TNF-alpha | IL-10 production (human whole blood; 6 hours): no IL-10 production was seen | levels of IL-12p40 (human whole blood; 6 hours): 8.000 to 12.000 pg/mL | levels of IL-12p40 (human whole blood; 24 hours): 20.000 to 25.000 pg/mL
